# According to the supplement of paper PMC12067093, “Discovery and optimisation of a covalent ligand for TRIM25 and its application to targeted protein ubiquitination” (Chemical Science, 2025):
# The other results are listed elsewhere or left out.
# Biological target: T1, NTAN1_Q96AB6_75_DGSISILGSDDATTCHIVVLR (UniProt Q96AB6)
# T1 sequence (whole entry): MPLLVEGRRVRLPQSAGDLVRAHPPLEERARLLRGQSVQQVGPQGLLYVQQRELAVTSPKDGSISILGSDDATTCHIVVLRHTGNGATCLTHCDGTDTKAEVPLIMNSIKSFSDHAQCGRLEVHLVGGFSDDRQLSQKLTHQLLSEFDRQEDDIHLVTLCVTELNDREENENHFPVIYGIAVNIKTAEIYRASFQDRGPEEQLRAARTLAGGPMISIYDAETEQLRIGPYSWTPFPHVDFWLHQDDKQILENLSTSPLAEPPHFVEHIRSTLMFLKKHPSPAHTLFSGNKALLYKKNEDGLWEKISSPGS
# Assay: probe-labelled cysteine peptide fold change vs DMSO (competition) (log2 fold change); higher = less target engagement (more negative = stronger competition)
# Conditions: THP-1, incubation time: 4 h
# 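Further: competitive chemoproteomic profiling in live THP-1 cells with an iodoacetamide desthiobiotin (IA-DTB) probe, comparing probe-labelled peptide intensities in compound-treated cells against DMSO-treated controls.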
compound,measurement,setting,value
CC1Cc2ccccc2N1C(=O)C1CCCN(C(=O)CCl)C1 (mixture of isomers) [TRIM25 ligand 11 (diastereomer mixture)],probe-labelled cysteine peptide fold change,10 µM,-0.125
same,probe-labelled cysteine peptide fold change,50 µM,-0.0511
